Data taken from ChEMBL document CHEMBL3988442, “University of Dundee, Small-Polar-MMV Screening Library” (2021).

Results are given as percent effect. How 0% and 100% were set is not recorded. Most values in the screen are low, and negative values occur. This is an unselected part of the compounds tested. Two or more numbers in one place are separate tests of the same structure; such repeats can differ widely.

Mtb cholesterol medium: 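Phenotypic screen: M. tuberculosis growth, cholesterol and DPPC medium, 4 days; the read-out is not stated. Compounds at 50 µM. The record gives no direction; compounds that gave an IC50 in retests scored well above the rest, so higher reads as more growth inhibition. Of about 69,000 compounds tested this way, about 370 (0.54%) reached 50% or more in at least one test.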
Mtb glucose medium: 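Phenotypic screen: M. tuberculosis growth, glucose 7H9 medium, 3 days; the read-out is not stated. Tested at 50 µM. Higher reads as more growth inhibition (inferred: compounds with an IC50 in retests scored well above the rest). Size under these conditions: about 69,000 compounds, about 760 of them at 50% or above in at least one test.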

| compound | Mtb cholesterol medium | Mtb glucose medium |
|---|---|---|
| `CCC(=O)NCC(Cc1cccc(F)c1)n1cccc1` (centres undefined) | -1.997 | 30.68 and 7.27 |
| `O=C(O)C(F)(F)F.[H][C@@]12COC[C@]1(COCC(=O)N(C)C)CN(Cc1ccco1)C2` | -2.484 | -3.455 |
| `c1ncn(CC2CCCCN2Cc2csc(-c3ccsc3)n2)n1` (centres undefined) | -3.801 | -0.5707 |
| `COc1ccc(C2CCCN2S(=O)(=O)c2cc(F)ccc2F)cc1` (centres undefined) | 30.76 and 23.22 | 41.33 |
| `COc1ccc2c(c1)CN(C)C(=O)CCN2CC(O)C(F)(F)F` (centres undefined) | -16 | -1.16 |
| `Cc1cc(CNC(=O)NCc2cccs2)ccc1S(C)(=O)=O` | 8.413 and 1.443 | -35.2 |
| `CC(CCc1ccccc1)NC(=O)CNCCCN1CCOCC1.O=C(O)C(=O)O` (centres undefined) | -9.686 | 1.01 |
| `CNC(=O)C1CCCCN1C(=O)CCn1cnc2sccc2c1=O` (centres undefined) | -8.693 | -17.73 |
| `COCCNC(=O)C(C)N1CCN(C)CC1.O=C(O)C(=O)O` (centres undefined) | 5.876 | 20.86 |
| `CC(C)(C)c1ccc(OCc2nc3c(c(=O)[nH]2)CCNC3)cc1` | 14.56 | 32.68 and 24.38 |
| `OCCNc1cc(-c2nccnc2N2CCCC2)c2cc[nH]c2n1` | 28.56 and -95.77 | -95.25 |
| `O=C(CC1CCCO1)NS(=O)(=O)Cc1cc(-c2ccccc2)no1` (centres undefined) | -20.41 | -0.615 |
| `COCC(=O)N1CCn2c(Cn3cncn3)cnc2C1C` (centres undefined) | 0.2031 | 9.402 |
| `Cc1cnn(CCC(=O)N2CCCC(c3cc(C)[nH]n3)C2)c1` (centres undefined) | -51.32 | -32.96 |
| `O=C1NCC2(CCCN(C(=O)CCn3cnc4ccccc43)CC2)O1` (centres undefined) | -0.4701 | -47.54 |
| `Cc1ncc(CN2CCOC(CN(C)c3cccnn3)C2)s1` (centres undefined) | 10.06 | -11.97 |
| `COc1ccc2c(C)c(C(=O)N3CCC(NC(C)=O)C3)oc2c1` (centres undefined) | -7.397 and -7.461 | -2.744 |
| `COCCNC(=O)c1cnc(C)nc1C` | -67.47 | -39.43 and -6.585 |
| `CN1CCN(Cc2cccnc2)C2(CCN(C3CCOCC3)C2)C1=O.O=C(O)C(F)(F)F.O=C(O)C(F)(F)F.O=C(O)C(F)(F)F` (centres undefined) | -27.86 | -1.148 and -4.979 |
| `Cc1cnc(C(=O)N2CCCC(n3cccn3)C2)cn1` (centres undefined) | -19.55 | 10.77 |
| `COCCN(C)c1cnn(C)c(=O)c1Br` | -3.061 | 5.855 |
| `CN(C)c1ncnc2c1CCN(Cc1nccs1)CC2.O=C(O)C(F)(F)F` | 4.763 | 1.602 |
| `CN1CCC(N2CCOC3(CCCC3)C2)C1=O` (centres undefined) | -12.81 | 14.59 |
| `CNC(=O)C(C)S(=O)(=O)Cc1csc(-c2cccs2)n1` (centres undefined) | -2.105 | 25.23 and -13.2 |
| `CC(NCCCN1CCCC1=O)c1cc(Br)ccc1F` (centres undefined) | 11.41 | -3.929 and 25.06 |
| `CCN(Cc1ccoc1)C(=O)C1CN(C(=O)OC(C)(C)C)C1` | 0.5097 | 0.2108 and 4.598 |
| `O=C1CC(c2cccnc2)c2c(sc3c2CCCC3)N1` (centres undefined) | 21.39 | 6.203 and 38.44 |
| `Cc1cc(C(=O)NCC(C)N2CCc3ccccc32)no1` (centres undefined) | 18.46 | 41.89 |
| `CSCC1CCN(C(=O)Cn2ncc(N3CCCCC3)cc2=O)CC1` | -25.34 | -10.75 |
| `CCOCCCC(=O)NCc1ccnc(N2CCN(C)CC2)c1` | -1.378 | -7.246 and -11.7 |
| `Cc1nc(CN2CCN(C(=O)CC(C)(C)c3ccccc3)CC2)no1` | -6.122 | -10.15 and 1.845 |
| `CN(C(=O)c1ccc(Cl)c(S(C)(=O)=O)c1)c1ccccc1` | 17.66 | 24.49 |
| `[H][C@]12CC[C@]([H])(CN(S(=O)(=O)N(C)C)C1)N(Cc1ccc3[nH]ccc3c1)C2` | 0.6974 and 1.848 | 15.11 |
| `CC[C@H]1COCCN1C(=O)c1cnc(-c2ccccc2)nc1C` | 15.22 | -0.7268 and 10.68 |
| `CCCn1c(C)c(CC(=O)NC(C)CO)c2c1CC(C)(C)CC2=O` (centres undefined) | -3.918 | 19.38 |
| `Cc1cc(CC(=O)N2CCc3cc(Br)sc3C2)n[nH]1` | 31.01 and -4.017 | 2.444 |
| `O=C(CS(=O)(=O)C1CCCC1)NC(c1ccc(F)cc1)C1CC1` (centres undefined) | 1.24 | 24.3 |
| `CCNC(=O)[C@@H]1C[C@H](N)CN1C(=O)C1(c2ccc(OC)cc2)CCCC1` | 4.463 | 10.71 and 0.7597 |
| `CN(Cc1ccsc1)Cc1nc(-c2ccncc2)no1` | 4.872 | 4.741 |
| `COC(=O)Cn1c(=O)nc2n1C(=O)N(c1cccc(C)c1)C2` | -20.88 | -12.6 |
| `O=C(O)C(F)(F)F.O=C1CC[C@]2(CC[C@@H](NC3CCOC3)CC2)N1Cc1ccccc1` (some centres undefined) | 0.2303 | -5.414 |

3 of the entries, repeated:

compound,Mtb cholesterol medium,Mtb glucose medium
COCCNC(=O)c1cnc(C)nc1C,-67.47,-39.43 and -6.585
Cc1nc(CN2CCN(C(=O)CC(C)(C)c3ccccc3)CC2)no1,-6.122,-10.15 and 1.845
CN1CCC(N2CCOC3(CCCC3)C2)C1=O (centres undefined),-12.81,14.59